In all, about 33,000 sequences were measured (“E-score (-0.5 to 0.5)”: median about -8e-05, highest 2% from about 0.23 on). This is one part of the list.
What follows are sequences tested against T1, Nrg2 (UniProt P38082) (assay: PBM E-score (8-mer binding enrichment) (E-score (-0.5 to 0.5)); higher = stronger / more preferred TF binding). Settings: protein concentration: 100 nM; construct: GST-full length.
T1 sequence: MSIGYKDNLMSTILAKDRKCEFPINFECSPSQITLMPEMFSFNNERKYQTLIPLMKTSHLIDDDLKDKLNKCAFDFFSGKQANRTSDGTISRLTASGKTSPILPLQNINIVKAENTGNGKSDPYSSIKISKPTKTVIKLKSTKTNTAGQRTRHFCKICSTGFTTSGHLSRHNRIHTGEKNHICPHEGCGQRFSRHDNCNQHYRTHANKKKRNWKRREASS
Experimental: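 Universal 'all 10-mer' protein binding microarrays (Agilent AMADID 015681) probed with GST-tagged S. cerevisiae TFs (full-length or DBD) made by in vitro transcription/translation (PURExpress), about 100-200 nM. Bound TF was detected with fluorescent anti-GST. Each ungapped 8-mer (which stands for itself and its reverse complement) is scored by the PBM enrichment score (E-score), a modified Wilcoxon-Mann-Whitney statistic from -0.5 to +0.5, computed with the Universal PBM Analysis Suite. Scale: above 0.35 generally sequence-specific binding.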

| Sequence | PBM E-score |
| --- | --- |
| ACTGGGCA | -0.123 |
| ACGTCGCA | 0.141 |
| GTATGCTA | 0.0199 |
| CACCACAA | 0.0543 |
| CCGCTAGG | -0.166 |
| ACAAACCT | 0.166 |
| AATTTCAA | -0.0693 |
| GTAAGAAC | 0.0463 |
| CTCGTAAC | 0.132 |
| TATCACGA | 0.059 |
| ATATAAGG | 0.125 |
| CCATCAGG | -0.115 |
| CGGACACC | -0.192 |
| TAGTCTGA | -0.039 |
| GGGCGTTA | 0.0526 |
| GTCCGACA | 0.0602 |
| AGCGGAGC | -0.151 |
| CATCGGGA | 0.0829 |
| GGCAAATA | 0.0445 |
| ACACCGAC | -0.151 |
| ATGATTTA | 0.192 |
| GTCCCATA | 0.0319 |
| CAGGAGGG | -0.178 |
| CCGCCGCA | 0.0152 |

| Sequence | PBM E-score |
| --- | --- |
| CGTCCACA | -0.0475 |
| CCCGGATA | -0.0367 |
| CTCTCATC | -0.142 |
| CGGATCAA | 0.148 |
| AAGATGTA | 0.147 |
| CTCCGAGC | 0.034 |
| CATAATTA | 0.173 |
| ACCCTAAT | 0.088 |
| ACGGGTTC | 0.0363 |
| GGCTCTAC | -0.22 |
| TAAGACAA | 0.0513 |
| CTTCCCAC | -0.139 |
| GCAACCAA | 0.129 |
| TCAACGCA | 0.108 |
| GACCCTCC | 0.16 |
| ATCGACGG | 0.0727 |
| AGAACTAA | 0.134 |
| GGAACACC | 0.0203 |
| GACGGTGA | -0.105 |
| CCATTCGA | -0.0491 |
| CGTAGAGC | 0.0117 |
| CGTCTCCC | -0.141 |
| AACACGCA | 0.115 |
| AGTACAAT | 0.206 |

Reformatted tab-delimited: part of the list above
Sequence	PBM E-score
GGCTCTAC	-0.22
TAAGACAA	0.0513
CTTCCCAC	-0.139

Next results

| Sequence | PBM E-score |
| --- | --- |
| GCATGCGC | 0.0537 |
| AGACTTGA | -0.278 |
| CATGCCCC | -0.0492 |
| TGTTGGAA | 0.0563 |
| GGCTCAAC | -0.135 |
| CATATCTA | 0.209 |
| TGTGCAAA | -0.15 |
| CGTCTTAC | -0.102 |
| CCCTTACG | -0.128 |
| CCGAAATC | 0.18 |
| AGCGGGTA | 0.0348 |
| AGACGCAA | 0.162 |
| CGGGCGAG | 0.0918 |
| ATCGCCTG | -0.0827 |
| AAATAACG | 0.134 |
| GCAGAGGC | -0.249 |
| GGGCAGAA | 0.226 |
| GGATTCTA | -0.0214 |
| GGATGTAA | 0.128 |
| ATTGAGAC | 0.0341 |
| CACTTTAG | -0.0797 |
| ATCTGTTC | 0.039 |
| CTCGTAGC | 0.0145 |
| ATATTTGC | 0.195 |

| Sequence | PBM E-score |
| --- | --- |
| AGCAGATC | 0.0779 |
| ATCGCAGG | 0.103 |
| GAGCGTGC | 0.036 |
| GCCAGCAC | -0.0402 |
| GTTAGGAA | -0.0262 |
| TCGACGAA | 0.0248 |
| CGCACCCG | -0.00584 |
| TCCGGAAA | 0.0528 |
| CACATGAG | -0.167 |
| ATGCCCGC | -0.0168 |
| ACTTAAAC | 0.0859 |
| TAGACGCA | -0.106 |
| CGAGCGCA | 0.165 |
| CAACTACC | -0.0263 |
| AGCGAGGA | 0.00657 |
| CCGGGCGC | -0.18 |
| CATACGGA | 0.0838 |
| CATGAAAG | 0.133 |
| AGGGCAAA | 0.131 |
| ATGTGTTC | 0.21 |
| GCGCAAAC | 0.211 |
| GCTGCAAC | -0.0525 |

A portion from further up, as a working copy:

| Sequence | PBM E-score |
| --- | --- |
| ATCGCAGG | 0.103 |
| GAGCGTGC | 0.036 |
| GCCAGCAC | -0.0402 |

Source: the supplement of paper PMC3334620
